PubChem BioAssay AID1224826, NIAID | 2016

- Screen: 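Knock-downs that raise or lower Tnf reporter signal after endotoxin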 (primary screen)
- Cells: RAW264.7 G9 macrophages from mouse bearing reporters for p65 (GFP) and the Tnf promoter (mCherry)
- Knock-down reagent: siRNA pool against mouse genes, 100 nM
- Time to read-out: 16 h of LPS stimulation, after 2 days of siRNA transfection
- Conditions: bacterial lipopolysaccharide (Salmonella minnesota R595), 10 ng/ml
- Measurement: 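Imaged Tnf reporter mCherry in nuclei, minus background, normalised per plate to the median and expressed as robust z-scores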
- Scale: Tnf reporter robust z-score: higher = stronger Tnf promoter reporter signal after LPS; Tnf reporter intensity: higher = stronger Tnf promoter reporter signal
- Active means: 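Called active when robust z-score is at most -1.3, matching the median of the Tlr4 knock-down control, or over 3; control wells and wells with under 50 cells never active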
- Meaning of the calls: active = Tnf reporter clearly lowered or raised; inactive = no clear change in Tnf reporter
Here is one part, drawn at random, of about 17,000 reagents tested. Of all reagents, about 1,110 (6.6%) are marked active. 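Active means lowered or raised reporter signal; replicate intensities are raw and not normalised per plate.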

no.	Target gene	PubChem SID	Tnf reporter robust z-score	fewer than 50 cells in well	Tnf reporter intensity, replicate 1	Tnf reporter intensity, replicate 2	call
1	Atad3aos	SID315474056		fewer than 50 cells per well; well left out of calls	176	69.3	inactive
2	Zfp398	SID315480966	-0.37	enough cells in well	213	186	inactive
3	Mucl1	SID315469454	2.86	enough cells in well	150	238	inactive
4	Or4k36	SID315480534	1.88	enough cells in well	310	187	inactive
5	Calcb	SID315477070	-0.34	enough cells in well	160	136	inactive
6	Cdr1os	SID315481638	-0.53	enough cells in well	92.7	62	inactive
7	Spata21	SID315481562		fewer than 50 cells per well; well left out of calls	112	38	inactive
8	Mtmr10	SID315479077	0.3	enough cells in well	245	208	inactive
9	Zfp422	SID315472929	-0.17	enough cells in well	166	277	inactive
10	Rnf19a	SID315470780	1.78	enough cells in well	200	210	inactive
11	Akap8l	SID315471175	0.68	enough cells in well	185	234	inactive
12	Tspan18	SID315479574	0.47	enough cells in well	226	200	inactive
13	Poglut3	SID315473500	-1.07	enough cells in well	115	41.5	inactive
14	Spmap2	SID315469709	-0.26	enough cells in well	202	129	inactive
15	Slc4a4	SID315471229	0.47	enough cells in well	258	163	inactive
16	Plekha4	SID315473756	0.45	enough cells in well	154	145	inactive
17	Cd1d2	SID315465841	0.26	enough cells in well	181	310	inactive
18	Ca9	SID315478761	-1.45	enough cells in well	71.1	86.5	active
19	Vmn1r29	SID315476987	0.7	enough cells in well	132	123	inactive
20	Bbox1	SID315477168	0.11	enough cells in well	221	207	inactive
21	Ccdc180	SID315481792	-0.15	enough cells in well	166	117	inactive
22	Ppp2r2d	SID315470964		fewer than 50 cells per well; well left out of calls	54.3	48.7	inactive
23	S100a14	SID315472259	-0.23	enough cells in well	326	162	inactive
24	Vmn1r190-ps	SID315479915	0.79	enough cells in well	156	109	inactive
25	Aftph	SID315478008	-0.48	enough cells in well	101	150	inactive
26	Uba52	SID315469897	-1.22	enough cells in well	143	126	inactive
27	Padi6	SID315479646	0.75	enough cells in well	189	162	inactive
28	Mapk8ip2	SID315472034	-0.74	enough cells in well	151	117	inactive
29	Dnah2	SID315478041	-0.07	enough cells in well	166	172	inactive
30	Oat	SID315468279	0.68	enough cells in well	341	189	inactive
31	Clk1	SID315465998	-1.34	enough cells in well	84	105	active
32	Hace1	SID315477598	-0.37	enough cells in well	157	208	inactive
33	Rabgap1l	SID315470699	0.35	enough cells in well	183	169	inactive
34	Mink1	SID315470892	0.46	enough cells in well	235	178	inactive
35	Grin3b	SID315477174	-0.24	enough cells in well	254	132	inactive
36	Os9	SID315477998		fewer than 50 cells per well; well left out of calls	128	30.6	inactive

4 consecutive entries from above:
no.	Target gene	PubChem SID	Tnf reporter robust z-score	fewer than 50 cells in well	Tnf reporter intensity, replicate 1	Tnf reporter intensity, replicate 2	call
33	Rabgap1l	SID315470699	0.35	enough cells in well	183	169	inactive
34	Mink1	SID315470892	0.46	enough cells in well	235	178	inactive
35	Grin3b	SID315477174	-0.24	enough cells in well	254	132	inactive
36	Os9	SID315477998		fewer than 50 cells per well; well left out of calls	128	30.6	inactive

Next entries:
no.	Target gene	PubChem SID	Tnf reporter robust z-score	fewer than 50 cells in well	Tnf reporter intensity, replicate 1	Tnf reporter intensity, replicate 2	call
37	Rab7b	SID315478499	1.7	enough cells in well	260	248	inactive
38	Rnf212	SID315481573	-0.47	enough cells in well	222	106	inactive
39	Dock1	SID315481610	0.08	enough cells in well	241	209	inactive
40	Aebp1	SID315465337	-0.32	enough cells in well	116	233	inactive
41	Zcchc3	SID315473309		fewer than 50 cells per well; well left out of calls	343	181	inactive
42	Cox5b	SID315466080	0.46	enough cells in well	214	203	inactive
43	Bcl2a1a	SID315465611		fewer than 50 cells per well; well left out of calls	10.8	129	inactive
44	Sppl2c	SID315479377	1.94	enough cells in well	267	282	inactive
45	Abhd17c	SID315473985		fewer than 50 cells per well; well left out of calls	128	38.2	inactive
46	Adra1d	SID315465326	-0.85	enough cells in well	137	238	inactive
47	Rarg	SID315468898	0.43	enough cells in well	370	224	inactive
48	Cbfb	SID315465793	0.35	enough cells in well	194	310	inactive
49	Slc30a8	SID315479442		fewer than 50 cells per well; well left out of calls	82.8	80.6	inactive
50	Chd6	SID315474229	0.52	enough cells in well	287	176	inactive
51	Mrps30	SID315471984	-0.03	enough cells in well	249	213	inactive
52	Fank1	SID315472723	1.06	enough cells in well	317	159	inactive
53	Cntn2	SID315469585	-0.84	enough cells in well	167	157	inactive
54	Gpr150	SID315479405	-0.66	enough cells in well	143	274	inactive
55	Mapre1	SID315466419	-0.98	enough cells in well	174	139	inactive
56	Or12j3	SID315480185	0.59	enough cells in well	103	141	inactive
57	Rp9	SID315471306	2.05	enough cells in well	254	178	inactive
58	Sbf2	SID315481196	-0.54	enough cells in well	171	94.8	inactive
